In patent US4430335A (priority 1983, dated 1984):

System: mice
Assay: animal or person
Assay type: in vivo, mice (male, CD-1)
Conditions: Mus musculus, sc, read-out: Dose Subcutaneously (sc) [*= ED50 ], 50 % Inhibition of phenylquinone writhing

How did the ED50 turn out when `CN1CC[C@]23c4c5ccc(O)c4O[C@H]2[C@@H](O)C=C[C@H]3[C@H]1C5.O=S(=O)(O)O` [morphine sulfate] was run?
The ED50 was 0.52 mg/kg.
